Reference: the supplement of paper PMC12819154, “High-throughput peptide-centric local stability assay extends protein–ligand identification to membrane proteins, tissues and bacteria” (Nature Structural & Molecular Biology, 2025)
The other results are listed elsewhere or left out. Small differences around the control level are noise.

Protein sequences, listed by entry. Tags and fused reporters are not part of them. Lines headed by an entry give the natural chain unless they say otherwise; changes in a name come on top.
UniProt P80217: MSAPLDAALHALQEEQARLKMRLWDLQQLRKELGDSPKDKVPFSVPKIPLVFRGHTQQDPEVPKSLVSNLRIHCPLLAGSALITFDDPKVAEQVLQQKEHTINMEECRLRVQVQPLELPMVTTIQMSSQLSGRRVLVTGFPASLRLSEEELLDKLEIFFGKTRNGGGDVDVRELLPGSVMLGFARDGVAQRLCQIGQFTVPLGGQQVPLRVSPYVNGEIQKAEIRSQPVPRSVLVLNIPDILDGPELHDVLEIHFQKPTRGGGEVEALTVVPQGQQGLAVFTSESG
UniProt P68104, whole entry: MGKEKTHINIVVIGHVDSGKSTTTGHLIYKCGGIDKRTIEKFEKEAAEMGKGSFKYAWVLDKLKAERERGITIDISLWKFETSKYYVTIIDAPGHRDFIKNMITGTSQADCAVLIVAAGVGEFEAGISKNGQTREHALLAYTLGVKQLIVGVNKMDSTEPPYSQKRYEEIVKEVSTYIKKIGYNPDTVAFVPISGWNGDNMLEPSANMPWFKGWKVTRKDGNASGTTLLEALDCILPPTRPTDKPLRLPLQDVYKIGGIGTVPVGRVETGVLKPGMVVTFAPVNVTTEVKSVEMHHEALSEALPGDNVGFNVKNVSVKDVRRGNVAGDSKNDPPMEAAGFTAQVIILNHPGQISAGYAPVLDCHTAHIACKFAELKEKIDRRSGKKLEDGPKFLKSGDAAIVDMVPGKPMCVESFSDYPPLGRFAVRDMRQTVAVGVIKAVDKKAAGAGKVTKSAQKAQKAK
UniProt P61204: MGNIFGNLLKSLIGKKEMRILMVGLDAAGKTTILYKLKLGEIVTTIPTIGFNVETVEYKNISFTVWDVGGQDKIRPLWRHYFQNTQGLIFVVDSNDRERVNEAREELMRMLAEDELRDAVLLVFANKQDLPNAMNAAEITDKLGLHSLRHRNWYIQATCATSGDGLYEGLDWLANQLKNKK
UniProt P58004: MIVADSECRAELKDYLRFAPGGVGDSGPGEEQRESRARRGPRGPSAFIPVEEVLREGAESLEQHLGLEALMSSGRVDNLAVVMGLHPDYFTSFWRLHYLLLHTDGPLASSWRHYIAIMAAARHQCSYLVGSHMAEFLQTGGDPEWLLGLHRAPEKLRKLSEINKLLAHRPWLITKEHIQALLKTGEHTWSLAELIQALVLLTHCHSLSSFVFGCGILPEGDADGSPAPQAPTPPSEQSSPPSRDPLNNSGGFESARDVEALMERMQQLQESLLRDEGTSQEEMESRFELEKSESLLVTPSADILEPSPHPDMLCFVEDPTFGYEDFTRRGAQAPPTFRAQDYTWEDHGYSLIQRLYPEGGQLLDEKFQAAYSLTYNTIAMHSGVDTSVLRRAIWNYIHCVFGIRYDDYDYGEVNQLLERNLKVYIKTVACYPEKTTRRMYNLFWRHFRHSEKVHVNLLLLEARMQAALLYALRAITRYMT
UniProt P61077: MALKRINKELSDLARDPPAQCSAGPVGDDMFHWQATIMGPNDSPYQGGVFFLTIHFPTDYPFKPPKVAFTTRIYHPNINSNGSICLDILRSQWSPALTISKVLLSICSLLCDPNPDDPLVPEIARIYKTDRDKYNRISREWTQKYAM
UniProt P60660, whole entry: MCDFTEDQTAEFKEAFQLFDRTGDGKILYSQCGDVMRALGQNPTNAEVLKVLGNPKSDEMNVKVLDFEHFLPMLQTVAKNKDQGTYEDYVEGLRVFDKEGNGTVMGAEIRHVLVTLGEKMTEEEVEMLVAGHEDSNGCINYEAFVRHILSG
UniProt P78364: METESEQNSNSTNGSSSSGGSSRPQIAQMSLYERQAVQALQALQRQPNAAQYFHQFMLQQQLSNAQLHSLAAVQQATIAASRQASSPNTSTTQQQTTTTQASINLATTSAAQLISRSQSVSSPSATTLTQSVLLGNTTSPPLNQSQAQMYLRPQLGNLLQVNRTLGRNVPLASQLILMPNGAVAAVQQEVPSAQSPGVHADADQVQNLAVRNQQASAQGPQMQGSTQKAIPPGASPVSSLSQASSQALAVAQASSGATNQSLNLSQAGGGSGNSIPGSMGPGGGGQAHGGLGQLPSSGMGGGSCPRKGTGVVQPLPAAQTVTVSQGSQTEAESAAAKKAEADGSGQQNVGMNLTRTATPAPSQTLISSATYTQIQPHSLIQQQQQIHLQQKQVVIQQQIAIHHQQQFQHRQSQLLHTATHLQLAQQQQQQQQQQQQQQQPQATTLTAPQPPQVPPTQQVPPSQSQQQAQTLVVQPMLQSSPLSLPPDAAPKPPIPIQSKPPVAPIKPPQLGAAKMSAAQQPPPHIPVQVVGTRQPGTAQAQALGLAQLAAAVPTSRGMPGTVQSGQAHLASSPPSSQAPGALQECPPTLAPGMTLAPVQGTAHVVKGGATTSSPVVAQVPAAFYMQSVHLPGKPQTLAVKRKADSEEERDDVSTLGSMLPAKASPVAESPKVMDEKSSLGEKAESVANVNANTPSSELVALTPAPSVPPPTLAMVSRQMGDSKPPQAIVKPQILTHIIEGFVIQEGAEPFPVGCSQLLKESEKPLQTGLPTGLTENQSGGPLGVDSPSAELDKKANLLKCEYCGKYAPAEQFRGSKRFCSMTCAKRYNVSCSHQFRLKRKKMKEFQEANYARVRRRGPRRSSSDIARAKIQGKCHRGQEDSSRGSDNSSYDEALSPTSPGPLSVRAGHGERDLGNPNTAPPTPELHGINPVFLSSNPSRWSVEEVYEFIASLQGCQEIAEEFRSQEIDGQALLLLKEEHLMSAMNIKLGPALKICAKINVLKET
UniProt P82970: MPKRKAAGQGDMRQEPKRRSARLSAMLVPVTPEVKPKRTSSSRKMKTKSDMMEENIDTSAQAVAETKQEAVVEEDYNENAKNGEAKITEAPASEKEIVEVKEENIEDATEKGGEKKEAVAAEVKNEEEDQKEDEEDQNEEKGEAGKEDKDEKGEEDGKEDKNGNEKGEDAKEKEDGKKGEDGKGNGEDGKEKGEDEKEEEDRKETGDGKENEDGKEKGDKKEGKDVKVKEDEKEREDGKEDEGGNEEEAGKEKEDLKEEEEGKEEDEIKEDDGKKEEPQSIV
UniProt P84101: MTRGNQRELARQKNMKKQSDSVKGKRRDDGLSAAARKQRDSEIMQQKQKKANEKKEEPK
UniProt P78356: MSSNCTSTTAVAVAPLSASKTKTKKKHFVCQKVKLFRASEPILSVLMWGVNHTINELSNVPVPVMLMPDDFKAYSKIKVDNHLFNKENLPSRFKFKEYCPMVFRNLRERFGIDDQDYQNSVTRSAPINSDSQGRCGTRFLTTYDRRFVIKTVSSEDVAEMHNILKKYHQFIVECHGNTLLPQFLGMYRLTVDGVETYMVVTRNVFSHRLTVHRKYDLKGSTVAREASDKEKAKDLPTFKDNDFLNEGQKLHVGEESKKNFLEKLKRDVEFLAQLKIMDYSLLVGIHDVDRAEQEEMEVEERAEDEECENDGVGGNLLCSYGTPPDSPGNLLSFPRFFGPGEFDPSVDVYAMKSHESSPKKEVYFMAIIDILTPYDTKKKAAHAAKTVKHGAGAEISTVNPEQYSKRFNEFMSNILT
UniProt P58340: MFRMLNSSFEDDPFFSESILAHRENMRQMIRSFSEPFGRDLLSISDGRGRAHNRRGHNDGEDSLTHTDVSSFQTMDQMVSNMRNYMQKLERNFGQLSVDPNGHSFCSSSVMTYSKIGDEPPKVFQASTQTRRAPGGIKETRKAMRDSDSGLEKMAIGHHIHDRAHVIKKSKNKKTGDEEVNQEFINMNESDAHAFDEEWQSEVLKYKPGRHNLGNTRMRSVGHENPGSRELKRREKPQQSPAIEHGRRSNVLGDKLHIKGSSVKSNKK
UniProt P78314: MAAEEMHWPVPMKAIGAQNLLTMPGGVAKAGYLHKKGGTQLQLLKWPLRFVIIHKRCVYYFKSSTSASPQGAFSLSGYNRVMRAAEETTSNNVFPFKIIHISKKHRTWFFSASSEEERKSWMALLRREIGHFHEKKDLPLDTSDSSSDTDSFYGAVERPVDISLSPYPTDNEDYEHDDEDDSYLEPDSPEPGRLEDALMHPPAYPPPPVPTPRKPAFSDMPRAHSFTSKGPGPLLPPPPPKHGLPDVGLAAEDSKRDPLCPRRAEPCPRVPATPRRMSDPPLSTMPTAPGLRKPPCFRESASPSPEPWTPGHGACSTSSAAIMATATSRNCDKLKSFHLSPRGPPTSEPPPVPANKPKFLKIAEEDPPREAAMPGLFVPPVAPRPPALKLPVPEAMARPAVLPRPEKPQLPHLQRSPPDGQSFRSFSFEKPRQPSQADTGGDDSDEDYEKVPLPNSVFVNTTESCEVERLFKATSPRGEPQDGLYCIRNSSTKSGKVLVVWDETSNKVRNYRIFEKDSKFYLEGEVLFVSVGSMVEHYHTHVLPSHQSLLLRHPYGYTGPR
UniProt P62491: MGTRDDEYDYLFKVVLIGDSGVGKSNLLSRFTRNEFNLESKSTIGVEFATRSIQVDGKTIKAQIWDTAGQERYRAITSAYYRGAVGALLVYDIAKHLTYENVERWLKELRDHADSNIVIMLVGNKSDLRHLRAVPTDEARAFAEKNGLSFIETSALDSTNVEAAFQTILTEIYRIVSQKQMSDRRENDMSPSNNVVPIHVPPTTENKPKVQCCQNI
UniProt P61129: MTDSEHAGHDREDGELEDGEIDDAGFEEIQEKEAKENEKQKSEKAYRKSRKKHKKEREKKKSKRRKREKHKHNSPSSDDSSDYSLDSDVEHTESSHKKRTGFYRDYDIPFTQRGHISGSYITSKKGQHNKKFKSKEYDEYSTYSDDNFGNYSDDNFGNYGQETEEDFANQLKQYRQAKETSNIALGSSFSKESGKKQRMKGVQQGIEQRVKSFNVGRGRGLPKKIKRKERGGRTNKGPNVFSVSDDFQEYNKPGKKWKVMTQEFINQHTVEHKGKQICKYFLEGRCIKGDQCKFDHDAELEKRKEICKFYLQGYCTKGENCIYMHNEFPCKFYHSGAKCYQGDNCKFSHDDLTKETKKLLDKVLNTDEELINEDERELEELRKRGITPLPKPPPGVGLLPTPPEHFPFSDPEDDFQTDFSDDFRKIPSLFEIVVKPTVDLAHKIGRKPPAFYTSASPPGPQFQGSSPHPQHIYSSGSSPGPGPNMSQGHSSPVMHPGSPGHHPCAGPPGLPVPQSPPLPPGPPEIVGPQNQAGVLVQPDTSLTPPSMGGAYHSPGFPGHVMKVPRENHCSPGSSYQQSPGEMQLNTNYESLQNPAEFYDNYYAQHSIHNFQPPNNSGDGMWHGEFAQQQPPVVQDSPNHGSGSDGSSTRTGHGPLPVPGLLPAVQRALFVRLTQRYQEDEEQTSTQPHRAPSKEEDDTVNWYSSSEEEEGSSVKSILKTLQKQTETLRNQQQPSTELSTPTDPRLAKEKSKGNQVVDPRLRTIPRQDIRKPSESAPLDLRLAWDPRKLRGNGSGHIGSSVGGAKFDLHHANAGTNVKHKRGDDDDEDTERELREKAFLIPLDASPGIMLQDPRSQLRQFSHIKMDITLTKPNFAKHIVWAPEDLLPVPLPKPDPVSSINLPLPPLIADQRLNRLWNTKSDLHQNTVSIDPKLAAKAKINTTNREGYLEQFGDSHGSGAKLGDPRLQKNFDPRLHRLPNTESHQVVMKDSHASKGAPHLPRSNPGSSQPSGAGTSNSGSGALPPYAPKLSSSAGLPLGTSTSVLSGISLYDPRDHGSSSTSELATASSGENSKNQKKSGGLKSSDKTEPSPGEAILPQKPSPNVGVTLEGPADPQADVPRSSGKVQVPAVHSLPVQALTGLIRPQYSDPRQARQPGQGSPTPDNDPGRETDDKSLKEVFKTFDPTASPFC
UniProt P55145: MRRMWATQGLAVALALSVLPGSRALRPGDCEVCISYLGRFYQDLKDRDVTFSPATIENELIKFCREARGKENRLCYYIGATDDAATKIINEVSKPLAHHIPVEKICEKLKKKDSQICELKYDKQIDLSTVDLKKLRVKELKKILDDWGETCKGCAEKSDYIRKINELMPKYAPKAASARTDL
UniProt P60468, whole entry: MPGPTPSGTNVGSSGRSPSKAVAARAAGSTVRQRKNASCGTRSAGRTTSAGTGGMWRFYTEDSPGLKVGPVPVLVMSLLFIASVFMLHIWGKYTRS
UniProt P62328: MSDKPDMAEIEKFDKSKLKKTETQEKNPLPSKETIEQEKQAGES
UniProt P83916, whole entry, looked up: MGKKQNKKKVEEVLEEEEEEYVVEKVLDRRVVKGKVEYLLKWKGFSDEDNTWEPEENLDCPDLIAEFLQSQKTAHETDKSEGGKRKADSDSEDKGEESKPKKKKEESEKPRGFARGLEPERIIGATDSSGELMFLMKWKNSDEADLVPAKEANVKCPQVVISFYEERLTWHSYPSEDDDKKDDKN
UniProt P57721, whole entry: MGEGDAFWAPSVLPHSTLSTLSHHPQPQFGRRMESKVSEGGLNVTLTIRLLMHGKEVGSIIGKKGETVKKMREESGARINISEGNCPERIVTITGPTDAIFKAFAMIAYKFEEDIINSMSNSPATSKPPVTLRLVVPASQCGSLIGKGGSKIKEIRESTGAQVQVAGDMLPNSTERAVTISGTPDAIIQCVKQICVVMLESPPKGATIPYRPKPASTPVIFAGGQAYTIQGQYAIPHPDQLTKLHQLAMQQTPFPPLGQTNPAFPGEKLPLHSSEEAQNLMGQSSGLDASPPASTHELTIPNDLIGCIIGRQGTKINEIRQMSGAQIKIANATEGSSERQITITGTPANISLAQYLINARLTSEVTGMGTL

Compound: CN[C@@H]1C[C@H]2O[C@@](C)([C@@H]1OC)n1c3ccccc3c3c4c(c5c6ccccc6n2c5c31)C(=O)NC4 [staurosporine]
Assay: log2 fold change of tryptic peptide abundance, ligand vs vehicle (limited proteolysis) (log2 ratio); higher = more trypsin-susceptible (destabilized)
Conditions: ligand concentration: 20 uM; sample: K562 cleared lysate; digestion: 4 min, 22 C (HT-PELSA RT4min, Orbitrap Astral)

Target | log2 fold change
UniProt P60510 (peptide sequence: YGSVTVWR, peptide start residue: 134) | 0.234
IFI35 (peptide sequence: VSPYVNGEIQK, peptide start residue: 211) (UniProt P80217) | 0.397
EEF1A1 (peptide sequence: QTVAVGVIK, peptide start residue: 431) (UniProt P68104) | -0.166
ARF3 (peptide sequence: ILMVGLDAAGK, peptide start residue: 20) (UniProt P61204) | 0.205
SESN2 (peptide sequence: MYNLFWR, peptide start residue: 439) (UniProt P58004) | -0.161
UniProt P61077 (peptide sequence: IYKTDRDK, peptide start residue: 126) | 0.639
UniProt P60660 (peptide sequence: VFDKEGNGTVMGAEIR, peptide start residue: 95) | -0.105
PHC1 (peptide sequence: PQIAQMSLYER, peptide start residue: 24) (UniProt P78364) | 0.155
SRP54 (peptide sequence: VDVASVIVTK, peptide start residue: 240) (UniProt P61011) | 0.641
UniProt P82970 (peptide sequence: KAAGQGDMR, peptide start residue: 5) | 0.441
UniProt P84101 (peptide sequence: RDDGLSAAAR, peptide start residue: 27) | -0.159
UniProt P78356 (peptide sequence: LHVGEESKK, peptide start residue: 250) | 0.167
MLF1 (peptide sequence: DLLSISDGR, peptide start residue: 40) (UniProt P58340) | 0.176
UniProt P61221 (peptide sequence: LCIEVTPQSK, peptide start residue: 37) | 0.462
SH3BP2 (peptide sequence: GPGPLLPPPPPK, peptide start residue: 230) (UniProt P78314) | -0.74
UniProt P62491 (peptide sequence: ENDMSPSNNVVPIHVPPTTENKPK, peptide start residue: 186) | -0.327
UniProt P61129 (peptide sequence: FDLHHANAGTNVK, peptide start residue: 805) | 0.791
UniProt P55145 (peptide sequence: QIDLSTVDLK, peptide start residue: 124) | 0.142
UniProt P59998 (peptide sequence: HNKPEVEVR, peptide start residue: 33) | 0.2
SEC61B (peptide sequence: FYTEDSPGLK, peptide start residue: 58) (UniProt P60468) | -0.405
UniProt P61964 (peptide sequence: ATEEKKPETEAAR, peptide start residue: 2) | -0.0702
UniProt P78563 (peptide sequence: YDFLSESGESHAK, peptide start residue: 249) | -0.662
UniProt P62847 (peptide sequence: MNDTVTIRTR, peptide start residue: 1) | 1.15
UniProt P62820 (peptide sequence: MGPGATAGGAEK, peptide start residue: 176) | -0.0534
TMSB4X (peptide sequence: KTETQEKNPLPSK, peptide start residue: 20) (UniProt P62328) | -0.0879
UniProt P83916 (peptide sequence: CPQVVISFYEER, peptide start residue: 156) | -0.156
UniProt P62841 (peptide sequence: QHSLLKR, peptide start residue: 53) | 0.48
PCBP3 (peptide sequence: QICVVMLESPPK, peptide start residue: 193) (UniProt P57721) | -0.177
UniProt P60866 (peptide sequence: TPVEPEVAIHRIR, peptide start residue: 9) | 0.914
UniProt P61163 (peptide sequence: YCFPNYVGRPK, peptide start residue: 33) | 0.206

Quoted from the listing.
log2 fold change, UniProt P55145 (peptide sequence: QIDLSTVDLK, peptide start residue: 124) is entered as 0.142
log2 fold change, UniProt P78563 (peptide sequence: YDFLSESGESHAK, peptide start residue: 249) is entered as -0.662
